Data on one molecule can be found in US20110091386A1 (GENE TECHNO SCIENCE, published 2011).

Amino acid sequences for entries named in this document (tags omitted). Residues count along the entry.
UniProt P02751, residues 32-2477: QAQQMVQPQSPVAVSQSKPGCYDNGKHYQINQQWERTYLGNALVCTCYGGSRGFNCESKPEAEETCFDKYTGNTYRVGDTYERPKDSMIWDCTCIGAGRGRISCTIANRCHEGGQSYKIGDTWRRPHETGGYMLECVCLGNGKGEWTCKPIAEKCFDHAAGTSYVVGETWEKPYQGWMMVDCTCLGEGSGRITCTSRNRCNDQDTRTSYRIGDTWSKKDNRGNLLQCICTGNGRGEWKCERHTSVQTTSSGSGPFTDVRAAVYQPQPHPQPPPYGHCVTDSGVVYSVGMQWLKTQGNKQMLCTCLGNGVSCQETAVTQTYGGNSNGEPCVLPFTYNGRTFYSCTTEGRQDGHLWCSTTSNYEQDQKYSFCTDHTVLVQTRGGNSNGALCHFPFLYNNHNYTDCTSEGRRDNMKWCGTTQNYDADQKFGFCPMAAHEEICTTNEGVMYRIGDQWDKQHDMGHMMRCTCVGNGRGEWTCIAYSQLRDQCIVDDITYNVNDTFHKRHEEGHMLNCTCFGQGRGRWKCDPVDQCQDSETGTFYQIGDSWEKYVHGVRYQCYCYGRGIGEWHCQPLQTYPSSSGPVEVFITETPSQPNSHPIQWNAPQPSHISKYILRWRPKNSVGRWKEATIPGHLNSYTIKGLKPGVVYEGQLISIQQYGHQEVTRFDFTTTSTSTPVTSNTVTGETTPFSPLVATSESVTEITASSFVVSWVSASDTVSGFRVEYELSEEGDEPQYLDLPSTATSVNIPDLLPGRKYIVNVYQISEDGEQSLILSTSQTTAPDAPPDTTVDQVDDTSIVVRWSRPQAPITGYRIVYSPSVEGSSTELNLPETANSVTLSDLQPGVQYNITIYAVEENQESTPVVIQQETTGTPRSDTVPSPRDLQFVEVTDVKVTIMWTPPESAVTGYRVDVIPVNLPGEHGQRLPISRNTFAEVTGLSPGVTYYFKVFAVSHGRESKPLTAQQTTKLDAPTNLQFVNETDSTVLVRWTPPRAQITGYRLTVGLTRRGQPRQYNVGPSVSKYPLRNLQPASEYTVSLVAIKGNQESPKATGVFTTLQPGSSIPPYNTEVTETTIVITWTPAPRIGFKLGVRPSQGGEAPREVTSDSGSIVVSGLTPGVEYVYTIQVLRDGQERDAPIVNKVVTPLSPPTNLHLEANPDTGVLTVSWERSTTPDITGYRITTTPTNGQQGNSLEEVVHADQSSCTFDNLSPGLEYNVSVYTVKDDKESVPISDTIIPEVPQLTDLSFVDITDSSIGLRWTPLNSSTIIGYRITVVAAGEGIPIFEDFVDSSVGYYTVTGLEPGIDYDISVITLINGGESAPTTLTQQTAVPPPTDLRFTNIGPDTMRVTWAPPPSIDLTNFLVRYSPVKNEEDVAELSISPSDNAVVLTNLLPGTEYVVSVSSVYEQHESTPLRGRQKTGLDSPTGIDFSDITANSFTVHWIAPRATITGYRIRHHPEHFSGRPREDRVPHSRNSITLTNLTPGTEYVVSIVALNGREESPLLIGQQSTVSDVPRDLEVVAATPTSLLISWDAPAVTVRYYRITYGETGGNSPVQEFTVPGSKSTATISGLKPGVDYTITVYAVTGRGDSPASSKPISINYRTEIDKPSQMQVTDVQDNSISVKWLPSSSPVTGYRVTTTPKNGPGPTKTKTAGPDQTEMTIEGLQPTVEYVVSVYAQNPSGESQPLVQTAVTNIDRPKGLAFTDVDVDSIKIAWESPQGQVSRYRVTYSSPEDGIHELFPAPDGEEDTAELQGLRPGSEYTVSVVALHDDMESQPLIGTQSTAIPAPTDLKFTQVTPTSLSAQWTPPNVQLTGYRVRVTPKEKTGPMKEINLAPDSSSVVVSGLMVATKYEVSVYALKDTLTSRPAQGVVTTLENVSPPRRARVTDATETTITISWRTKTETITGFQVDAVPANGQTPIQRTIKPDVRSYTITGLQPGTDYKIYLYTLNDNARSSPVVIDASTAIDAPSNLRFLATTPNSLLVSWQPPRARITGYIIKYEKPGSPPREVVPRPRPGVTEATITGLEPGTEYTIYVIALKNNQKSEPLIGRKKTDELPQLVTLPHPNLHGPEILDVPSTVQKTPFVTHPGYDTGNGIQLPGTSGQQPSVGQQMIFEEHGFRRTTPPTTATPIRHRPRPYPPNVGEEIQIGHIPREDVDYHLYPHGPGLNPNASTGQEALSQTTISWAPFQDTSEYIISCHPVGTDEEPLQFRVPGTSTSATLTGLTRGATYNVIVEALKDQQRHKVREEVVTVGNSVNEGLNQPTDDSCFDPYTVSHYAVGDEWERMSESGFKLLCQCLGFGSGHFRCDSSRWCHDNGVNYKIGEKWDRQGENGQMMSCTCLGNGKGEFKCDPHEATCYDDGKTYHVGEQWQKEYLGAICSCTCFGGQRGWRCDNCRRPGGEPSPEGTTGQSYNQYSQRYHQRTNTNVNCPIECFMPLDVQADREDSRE

Results are given in words; binding and its absence hold for the method and conditions named. Some entries that bind do so weakly or less than the wild type.

This assay has as its target human fibronectin (human) (UniProt P02751). Put plainly: ELISA, protein coated at 5 ug/ml, HRP anti-murine IgG, A490. (ELISA stands for enzyme-linked immunosorbent assay.)

B1: mouse anti-RGD monoclonal antibody 33E10 (FERM BP-10440) (antibody, mouse IgG1, V domains shown)
VH: EVKLVESGGGLVQPGGSLSLSCAASGFTFTDYYMIWVRQPPGKALEWLGFIRNKANGYTTEYSASVKGRFTISRDNSQSILYLQMNALRAEDSATYYCARGAYWGQGTLVTVSA
VL: DVLMTQTPLSLPVSLGDQASISCRSSQSIVHSNGNTYLEWYLQKPGQSPKLLIYRVSNRFSGVPDRFSGSGSGTDFTLKISRVEAEDLGVYYCFQGSFVPWTFGGGTKLEIK
notes: Mouse IgG1 from hybridoma, purified on an antigen peptide column
For B1, the binding result is on record as “binds”.
